This is an account of results in PMC7819943, “Rice protein-binding microarrays: a tool to detect cis-acting elements near promoter regions in rice”.

The list shows a part of the results.

The target of the assay is T1, OsSMF1 (Oryza sativa, UniProt Q6ZLB0 1-436).
T1 sequence: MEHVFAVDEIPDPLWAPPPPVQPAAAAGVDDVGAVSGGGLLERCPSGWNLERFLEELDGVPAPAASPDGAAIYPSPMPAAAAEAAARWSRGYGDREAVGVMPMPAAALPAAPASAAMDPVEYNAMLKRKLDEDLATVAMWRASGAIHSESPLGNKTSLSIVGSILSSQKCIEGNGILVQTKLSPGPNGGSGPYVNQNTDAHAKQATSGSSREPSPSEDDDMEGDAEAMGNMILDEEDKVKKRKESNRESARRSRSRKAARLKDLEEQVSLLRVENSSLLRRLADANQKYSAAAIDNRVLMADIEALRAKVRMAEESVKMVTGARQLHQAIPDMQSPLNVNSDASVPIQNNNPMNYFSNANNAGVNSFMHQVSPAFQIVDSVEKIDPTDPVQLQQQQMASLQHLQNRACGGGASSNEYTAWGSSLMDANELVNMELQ
Put plainly: protein-binding microarray (RPBM); PBS, 2% BSA, 51.3 ng/ul salmon testes DNA, 50 uM zinc acetate, 200 nM TF, 25 C, 1 h; high values mean tight binding. Particulars: protein: recombinant; tags: N-terminal polyhistidine and DsRed monomer fusion (pET32a); chain copies: 2; label: CyDye5-dUTP incorporated in the synthesized complementary strand; 3' TTTTT single-stranded linker to array surface; dsDNA, one strand shown. The procedure, abridged: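 A custom Agilent array was converted to double-stranded form by primer extension with Cy5-dUTP and blocked with 2% BSA. Protein at 200 nM in PBS with 2% BSA, salmon testes DNA and 50 µM zinc acetate was applied for 1 h at 25 °C, followed by washing. The proteins were polyhistidine–DsRed N-terminal fusions of transcription factors, expressed in E. coli BL21-CodonPlus and Ni–NTA-purified. The binding signal is per-feature fluorescence intensity (arbitrary units) from an Axon 4000B scanner.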
For the sequence “ATTGAAGTATCCTAGCTGTTTTCCTCTCAATCCGCTATCTCGGAGTCACCTAGTGCAG”, the binding signal was 3550 fluorescence intensity (a.u.).
The same measure for “CCCCGCTTCGCCGCCGGCCGCCTCTCTCTTCTCAAGAGTCCGGAGTCACCTAGTGCAG”: 3340 fluorescence intensity (a.u.).
With “ATCCCTCAAATTCCCGTGCGACACGTCTGCTGCTTCCATCCGGAGTCACCTAGTGCAG”, the binding signal is 6600 fluorescence intensity (a.u.).
The same measure for “CCGTTCAGTGACGATAAAGTCAGTGTTACCAAGTCATTCCCGGAGTCACCTAGTGCAG”: 3340 fluorescence intensity (a.u.).
Consider “TTTTAGCCAGCGAAATGCCACGTCATCATTTATGAGGGCACGGAGTCACCTAGTGCAG”, for which the binding signal is 14100 fluorescence intensity (a.u.).
In the case of “ACGTTTACTCCCAGTACACACAAGACACTACTAGCTTAGACGGAGTCACCTAGTGCAG” it was 3420 fluorescence intensity (a.u.); in that of “ATGACACATGGTGAAGATACACGTTGAAACATGTCACTGTCGGAGTCACCTAGTGCAG”, 34000 fluorescence intensity (a.u.).
In the case of “AAATACTACTCTTTACTGTATATAGTATGATTTAACTCATCGGAGTCACCTAGTGCAG” it was 28800 fluorescence intensity (a.u.); in that of “GTGCTGGCCAAATGGGCCGGGCCAAGGCCTCGGTAACCACCGGAGTCACCTAGTGCAG”, 42300 fluorescence intensity (a.u.).
In the case of “GGCGGCGGAGGTGTCTCCGGCGGAGGCCGAGTCAGCGGCGCGGAGTCACCTAGTGCAG” it was 3500 fluorescence intensity (a.u.); in that of “CAAAAGGACCATGGTGTGTGGATGACATGACTAGTGAGGCCGGAGTCACCTAGTGCAG”, 4650 fluorescence intensity (a.u.); in that of “GTAGTCATCCATGATCCATGCTTGTACGTGTGCTAGTGCTCGGAGTCACCTAGTGCAG”, 3430 fluorescence intensity (a.u.).
For the sequence “GCGGCGGCGGCGGCGGCGGTGTCGTCACCGTCGCGTTCCCCGGAGTCACCTAGTGCAG”, the binding signal is 5670 fluorescence intensity (a.u.).
The same measure for “CGCCGCGTGATTCCGTGGCATACTGCCATGGATGGCTGCTCGGAGTCACCTAGTGCAG”: 25800 fluorescence intensity (a.u.); for “GGTGTCTTGTCCGGCTGCGTCACGCAACCGGTGCCCAATGCGGAGTCACCTAGTGCAG”: 10400 fluorescence intensity (a.u.); for “TCGGGTGAGCGAGTGAGTGGGCGAGGAGGCGCGGCGGCGGCGGAGTCACCTAGTGCAG”: 3800 fluorescence intensity (a.u.).
The same measure for “CGCAGCCGTCGATTCCTCCTACGTGGCTCAATCCCATCCGCGGAGTCACCTAGTGCAG”: 11500 fluorescence intensity (a.u.); for “ATAACCACAATAGTTATGACTGTACTACTTACTCTTTATACGGAGTCACCTAGTGCAG”: 5860 fluorescence intensity (a.u.); for “GCACGATCCATCCATCCACGCCACGCTGAATACTTCGCTCCGGAGTCACCTAGTGCAG”: 3230 fluorescence intensity (a.u.).
In the case of “GTCCCTTGCTGTCAGCAGACTTCATTATATTTCAACAATGCGGAGTCACCTAGTGCAG” it was 4050 fluorescence intensity (a.u.); in that of “CAGGCGGCTGGGCCTAGCTGTCAGTGACACGTCAGAGCGCCGGAGTCACCTAGTGCAG”, 12000 fluorescence intensity (a.u.); in that of “TTGTAAGTTGGATGATGCGTCATATCTAGTTTTACGGTTGCGGAGTCACCTAGTGCAG”, 8270 fluorescence intensity (a.u.).
Take “AACCCATGTCATCAATGTTGAGCTGTCCCGTGATTTGTTCCGGAGTCACCTAGTGCAG”: the binding signal is 6620 fluorescence intensity (a.u.).
The same measure for “CTGCTGATGCCATGCCACACCTGAGGTCATCCGCTCGCGCCGGAGTCACCTAGTGCAG”: 5540 fluorescence intensity (a.u.).
In the case of “GGAACATGTATGCACCGAACCTGGTGCATGTCCACGTTCACGGAGTCACCTAGTGCAG” it was 3740 fluorescence intensity (a.u.).
Take “GCATTGTAGCTAGGGGCCTATTGTAGACCTTATGAGTTTTCGGAGTCACCTAGTGCAG”: the binding signal was 4860 fluorescence intensity (a.u.).
Consider “GTCGCCGGACATCCTCAGGGACGACCGCTTCGCCGTCCGCCGGAGTCACCTAGTGCAG”, for which the binding signal is 24300 fluorescence intensity (a.u.).
On to “TTGTTGTGGAATGATTCATAGATCCGTCCTCCTTTACTGTCGGAGTCACCTAGTGCAG”, for which the binding signal is 3360 fluorescence intensity (a.u.).
For “CCCTTTACGAATCACGAGTATTTTGTGAATCATGGGAGTACGGAGTCACCTAGTGCAG”, the binding signal was 3470 fluorescence intensity (a.u.).
With “AGCTGCATATGCTACACGCATTGTTAGTTTGCATGCAAGCCGGAGTCACCTAGTGCAG”, the binding signal was 4090 fluorescence intensity (a.u.).
In the case of “CGCAGCACGCACGCACGCAGACACGCCCACGCGTTGCGGCCGGAGTCACCTAGTGCAG”, the binding signal is 3550 fluorescence intensity (a.u.).
As to “TGGTGCCATGTCCGTGCATTCACAGCAGTGTTTGTTATTCCGGAGTCACCTAGTGCAG”, the binding signal was 3810 fluorescence intensity (a.u.).
In the case of “CAGTAGAGCTGTAGAGCACACATCATTCTCGTTCTCCTCCCGGAGTCACCTAGTGCAG” it was 3630 fluorescence intensity (a.u.); in that of “TATGCATGAGAATGACACGTGGAGCATAGCCGAGCCTCCACGGAGTCACCTAGTGCAG”, 7820 fluorescence intensity (a.u.).
For the sequence “GCGTTTGCCAGCCGGCCGCCTGCCATTGTGCCTTTCTGCGCGGAGTCACCTAGTGCAG”, the binding signal was 3310 fluorescence intensity (a.u.).
On to “CCACCGGAGCTGGGACAGCTGACACAGCTGCGGTGGCTGACGGAGTCACCTAGTGCAG”, for which the binding signal is 3430 fluorescence intensity (a.u.).
For the sequence “GCACAGTAAGTCATGCCCACGTGGGCCACAAACTAGCTAGCGGAGTCACCTAGTGCAG”, the binding signal was 10500 fluorescence intensity (a.u.).
The same measure for “CCAAAACAAACAAAGCAAGAGCGAAGATGAACACAATATCCGGAGTCACCTAGTGCAG”: 4090 fluorescence intensity (a.u.); for “CGCTCCTCGCCGCCTTGAACCTCACAGCGAAACCTGATCACGGAGTCACCTAGTGCAG”: 3270 fluorescence intensity (a.u.); for “TTTTCAATTGTACATTGAGTCATTGACAATGCACAATTTACGGAGTCACCTAGTGCAG”: 3680 fluorescence intensity (a.u.).
The same measure for “GCGGCGCCATCGACAGAAAGAGCAGAATCTAGCATGCACGCGGAGTCACCTAGTGCAG”: 5420 fluorescence intensity (a.u.); for “ATAATTAGTCGTGTGCATCACCGTCATCTGGTATCTCTTGCGGAGTCACCTAGTGCAG”: 7000 fluorescence intensity (a.u.).
